# Assay results reported in the supplement of paper PMC8728848.
# The list shows a part of the results.
# B1: XTP3-B-MRH1 (Homo sapiens), Q96DZ1 (protein)
# chain: LLEPLFKQSSCSYRIESYWTYEVCHGKHIRQYHEEKETGQKINIHEYYLGNMLAKNLLFEKEREAEEKEKSNEIPTKNIEGQMTPYYPVGMGNGTPCSLKQNRPRSSTVMYICHPESKHEILSVAEVTTCEYEVVILTPLLCSHPKYRFRA
# Assays:
# Experiment in all cases: glycan array binding signal (z-score within array); higher = stronger binding
# Settings in all cases: glycan notation: IUPAC condensed, linker removed
# [1] = target: GlcNAc(b1-3)Gal(b1-4)GlcNAc(b1-3)Gal(b1-4)GlcNAc(b1-3)Gal(b1-4)GlcNAc(b1-3)Gal(b1-4)GlcNAc(b1-2)[GlcNAc(b1-3)Gal(b1-4)GlcNAc(b1-3)Gal(b1-4)GlcNAc(b1-3)Gal(b1-4)GlcNAc(b1-3)Gal(b1-4)GlcNAc(b1-6)]Man(a1-6)[GlcNAc(b1-3)Gal(b1-4)GlcNAc(b1-3)Gal(b1-4)GlcNAc(b1-3)Gal(b1-4)GlcNAc(b1-3)Gal(b1-4)GlcNAc(b1-2)Man(a1-3)]Man(b1-4)GlcNAc(b1-4)[Fuc(a1-6)]GlcNAc
# Summary of the method: (§1)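 The binding signal is a Z-score computed within each array and averaged over linkers. Arrays of the same protein sequence at different concentrations or buffers were also averaged together. Data originate from 3228 arrays in the Consortium for Functional Glycomics database, kept only where the protein sequence was available.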
# [2] = target: GlcNAc(b1-3)Gal(b1-4)GlcNAc(b1-3)Gal(b1-4)GlcNAc(b1-3)GalNAc
# Summary of the method: as §1
# [3] = target: GlcNAc(b1-3)Gal(b1-4)GlcNAc(b1-3)GalNAc
# Summary of the method: as §1
# [4] = target: GlcNAc(b1-3)Gal(b1-4)GlcNAc(b1-3)[GlcNAc(b1-3)Gal(b1-4)GlcNAc(b1-3)]GalNAc
# Summary of the method: as §1
# [5] = target: GlcNAc(b1-3)Gal(b1-4)GlcNAc(b1-6)[Gal(b1-3)]GalNAc
# Summary of the method: as §1
# [6] = target: GlcNAc(b1-3)Gal(b1-4)GlcNAc(b1-6)[GlcNAc(b1-3)Gal(b1-3)]GalNAc
# Summary of the method: as §1
# [7] = target: GlcNAc(b1-3)Gal(b1-4)GlcNAc(b1-6)[GlcNAc(b1-3)]Gal(b1-4)GlcNAc
# Summary of the method: as §1
# GlcNAc(b1-3)GalNAc = target: GlcNAc(b1-3)GalNAc
# Summary of the method: as §1
# GlcNAc(b1-3)Man = target: GlcNAc(b1-3)Man
# Summary of the method: as §1
# [8] = target: GlcNAc(b1-3)[GlcNAc(b1-4)][GlcNAc(b1-6)]GlcNAc
# Summary of the method: as §1
# [9] = target: GlcNAc(b1-3)[GlcNAc(b1-6)]Gal(b1-4)GlcNAc
# Summary of the method: as §1
# [10] = target: GlcNAc(b1-3)[GlcNAc(b1-6)]GalNAc
# Summary of the method: as §1
# [11] = target: GlcNAc(b1-4)Gal(b1-4)GlcNAc
# Summary of the method: as §1
# GlcNAc(b1-4)GlcNAc = target: GlcNAc(b1-4)GlcNAc
# Summary of the method: as §1
# [12] = target: GlcNAc(b1-4)GlcNAc(b1-4)GlcNAc
# Summary of the method: as §1
# [13] = target: GlcNAc(b1-4)GlcNAc(b1-4)GlcNAc(b1-4)GlcNAc(b1-4)GlcNAc
# Summary of the method: as §1
# [14] = target: GlcNAc(b1-4)GlcNAc(b1-4)GlcNAc(b1-4)GlcNAc(b1-4)GlcNAc(b1-4)GlcNAc
# Summary of the method: as §1
# [15] = target: GlcNAc(b1-4)[GlcNAc(b1-6)]GalNAc
# Summary of the method: as §1
# [16] = target: GlcNAc(b1-6)Gal(b1-4)GlcNAc
# Summary of the method: as §1
# GlcNAc(b1-6)GalNAc = target: GlcNAc(b1-6)GalNAc
# Summary of the method: as §1
# [17] = target: GlcNAc6S(b1-3)Gal(b1-4)GlcNAc
# Summary of the method: as §1
# Kdn(a2-3)Gal(b1-3)GalNAc = target: Kdn(a2-3)Gal(b1-3)GalNAc
# Summary of the method: as §1
# Kdn(a2-3)Gal(b1-3)GlcNAc = target: Kdn(a2-3)Gal(b1-3)GlcNAc
# Summary of the method: as §1
# Kdn(a2-3)Gal(b1-4)Glc = target: Kdn(a2-3)Gal(b1-4)Glc
# Summary of the method: as §1
# Kdn(a2-3)Gal(b1-4)GlcNAc = target: Kdn(a2-3)Gal(b1-4)GlcNAc
# Summary of the method: as §1
# [18] = target: Kdn(a2-3)Gal(b1-4)[Fuc(a1-3)]GlcNAc
# Summary of the method: as §1
# Kdn(a2-6)Gal(b1-4)GlcNAc = target: Kdn(a2-6)Gal(b1-4)GlcNAc
# Summary of the method: as §1
# [19] = target: Man(a1-2)Man(a1-2)Man(a1-3)Man
# Summary of the method: as §1
# [20] = target: Man(a1-2)Man(a1-2)Man(a1-6)[Man(a1-3)]Man
# Summary of the method: as §1
# Man(a1-2)Man(a1-3)Man = target: Man(a1-2)Man(a1-3)Man
# Summary of the method: as §1
# [21] = target: Man(a1-2)Man(a1-3)[Man(a1-2)Man(a1-6)]Man
# Summary of the method: as §1
# [22] = target: Man(a1-2)Man(a1-3)[Man(a1-2)Man(a1-6)]Man(a1-6)[Man(a1-2)Man(a1-2)Man(a1-3)]Man
# Summary of the method: as §1
# [23] = target: Man(a1-2)Man(a1-3)[Man(a1-2)Man(a1-6)]Man(a1-6)[Man(a1-2)Man(a1-2)Man(a1-3)]Man(b1-4)GlcNAc(b1-4)GlcNAc
# Summary of the method: as §1
# [24] = target: Man(a1-2)Man(a1-3)[Man(a1-6)]Man(a1-6)[Man(a1-2)Man(a1-3)]Man(b1-4)GlcNAc(b1-4)GlcNAc
# Summary of the method: as §1
# [25] = target: Man(a1-2)Man(a1-6)[Man(a1-3)]Man(a1-6)[Man(a1-2)Man(a1-2)Man(a1-3)]Man
# Summary of the method: as §1
# [26] = target: Man(a1-2)Man(a1-6)[Man(a1-3)]Man(a1-6)[Man(a1-2)Man(a1-2)Man(a1-3)]Man(b1-4)GlcNAc(b1-4)GlcNAc
# Summary of the method: as §1
# Man(a1-3)[Man(a1-6)]Man = target: Man(a1-3)[Man(a1-6)]Man
# Summary of the method: as §1
# [27] = target: Man(a1-3)[Man(a1-6)]Man(a1-6)[Man(a1-2)Man(a1-3)]Man(b1-4)GlcNAc(b1-4)GlcNAc
# Summary of the method: as §1
# [28] = target: Man(a1-3)[Man(a1-6)]Man(a1-6)[Man(a1-3)]Man
# Summary of the method: as §1
# [29] = target: Man(a1-3)[Man(a1-6)]Man(a1-6)[Man(a1-3)]Man(b1-4)GlcNAc(b1-4)GlcNAc
# Summary of the method: as §1
# [30] = target: Man(a1-3)[Man(a1-6)]Man(b1-4)GlcNAc(b1-4)GlcNAc
# Summary of the method: as §1
# [31] = target: Man(a1-3)[Man(a1-6)]Man(b1-4)GlcNAc(b1-4)[Fuc(a1-6)]GlcNAc
# Summary of the method: as §1
# Man(a1-6)Man = target: Man(a1-6)Man
# Summary of the method: as §1
# Man(b1-4)GlcNAc = target: Man(b1-4)GlcNAc
# Summary of the method: as §1
# MurNAc(b1-4)GlcNAc = target: MurNAc(b1-4)GlcNAc
# Summary of the method: as §1
binder,measurement,setting,value
B1,glycan array binding signal (z-score),[1],1.01
same,glycan array binding signal (z-score),[2],0.069
same,glycan array binding signal (z-score),[3],0.221
same,glycan array binding signal (z-score),[4],1.38
same,glycan array binding signal (z-score),[5],0.242
same,glycan array binding signal (z-score),[6],0.324
same,glycan array binding signal (z-score),[7],-0.938
same,glycan array binding signal (z-score),GlcNAc(b1-3)GalNAc,-0.878
same,glycan array binding signal (z-score),GlcNAc(b1-3)Man,-0.404
same,glycan array binding signal (z-score),[8],-1.04
same,glycan array binding signal (z-score),[9],-0.065
same,glycan array binding signal (z-score),[10],0.251
same,glycan array binding signal (z-score),[11],-0.31
same,glycan array binding signal (z-score),GlcNAc(b1-4)GlcNAc,-0.705
same,glycan array binding signal (z-score),[12],1.43
same,glycan array binding signal (z-score),[13],0.024
same,glycan array binding signal (z-score),[14],0.542
same,glycan array binding signal (z-score),[15],-0.863
same,glycan array binding signal (z-score),[16],0.857
same,glycan array binding signal (z-score),GlcNAc(b1-6)GalNAc,-0.151
same,glycan array binding signal (z-score),[17],-0.139
same,glycan array binding signal (z-score),Kdn(a2-3)Gal(b1-3)GalNAc,-0.148
same,glycan array binding signal (z-score),Kdn(a2-3)Gal(b1-3)GlcNAc,0.064
same,glycan array binding signal (z-score),Kdn(a2-3)Gal(b1-4)Glc,0.444
same,glycan array binding signal (z-score),Kdn(a2-3)Gal(b1-4)GlcNAc,-0.086
same,glycan array binding signal (z-score),[18],0.893
same,glycan array binding signal (z-score),Kdn(a2-6)Gal(b1-4)GlcNAc,2.17
same,glycan array binding signal (z-score),[19],-0.367
same,glycan array binding signal (z-score),[20],-0.322
same,glycan array binding signal (z-score),Man(a1-2)Man(a1-3)Man,-1.45
same,glycan array binding signal (z-score),[21],-0.311
same,glycan array binding signal (z-score),[22],-0.201
same,glycan array binding signal (z-score),[23],-0.893
same,glycan array binding signal (z-score),[24],-1.65
same,glycan array binding signal (z-score),[25],-0.073
same,glycan array binding signal (z-score),[26],-1.35
same,glycan array binding signal (z-score),Man(a1-3)[Man(a1-6)]Man,-0.51
same,glycan array binding signal (z-score),[27],-0.441
same,glycan array binding signal (z-score),[28],0.125
same,glycan array binding signal (z-score),[29],-0.629
same,glycan array binding signal (z-score),[30],0.334
same,glycan array binding signal (z-score),[31],-1.67
same,glycan array binding signal (z-score),Man(a1-6)Man,0.203
same,glycan array binding signal (z-score),Man(b1-4)GlcNAc,-0.814
same,glycan array binding signal (z-score),MurNAc(b1-4)GlcNAc,-0.867

# Given as tab-separated lines: part of the list above
binder	measurement	setting	value
B1	glycan array binding signal (z-score)	[5]	0.242
same	glycan array binding signal (z-score)	[6]	0.324
same	glycan array binding signal (z-score)	[7]	-0.938
